Literature values as cited in patent US10976308B2, “Plant-derived nanofibrillar cellulose hydrogel for cell culture and chemical testing” (UPM-KYMMENE CORPORATION, priority 2014, dated 2021).

Assays:
[1] = by Khetani et al. 2013
3D liver models = conditions: by Khetani et al. 2013

Cmax [1]: 11.5 µM
Structure (SMILES): O=C(O)c1cn(C2CC2)c2cc(N3CCNCC3)c(F)cc2c1=O [ciprofloxacin]
Toxicity in 3D liver models (3D liver models): toxicity is not detected in all 3D models tested
